Values quoted from earlier work in paper PMC10793096 (Acta Pharmaceutica Sinica. B, 2023).
pIC50: −log10 of the molar value.

Tested on: MCF-7 (human breast adenocarcinoma) cell line
Settings: read-out: IC50 MCF-7; taken from the literature; cited from earlier work

Question: With CC(=O)O[C@H]1C(=O)[C@@]2(C)[C@H]([C@H](OC(=O)c3ccccc3)[C@]3(O)C[C@H](OC(=O)[C@H](O)[C@@H](NC(=O)c4ccccc4)c4ccccc4)C(C)=C1C3(C)C)[C@]1(OC(C)=O)CO[C@@H]1C[C@@H]2O [Paclitaxel] as the compound, how does the pIC50 read?
Answer: 8.56
